Source: the supplement of paper PMC10849652
The list shows a part of the results.

Protein sequences, listed by entry. Tags and fused reporters are not part of them. Lines headed by an entry give the natural chain unless they say otherwise; changes in a name come on top.
UniProt Q7Z6E9: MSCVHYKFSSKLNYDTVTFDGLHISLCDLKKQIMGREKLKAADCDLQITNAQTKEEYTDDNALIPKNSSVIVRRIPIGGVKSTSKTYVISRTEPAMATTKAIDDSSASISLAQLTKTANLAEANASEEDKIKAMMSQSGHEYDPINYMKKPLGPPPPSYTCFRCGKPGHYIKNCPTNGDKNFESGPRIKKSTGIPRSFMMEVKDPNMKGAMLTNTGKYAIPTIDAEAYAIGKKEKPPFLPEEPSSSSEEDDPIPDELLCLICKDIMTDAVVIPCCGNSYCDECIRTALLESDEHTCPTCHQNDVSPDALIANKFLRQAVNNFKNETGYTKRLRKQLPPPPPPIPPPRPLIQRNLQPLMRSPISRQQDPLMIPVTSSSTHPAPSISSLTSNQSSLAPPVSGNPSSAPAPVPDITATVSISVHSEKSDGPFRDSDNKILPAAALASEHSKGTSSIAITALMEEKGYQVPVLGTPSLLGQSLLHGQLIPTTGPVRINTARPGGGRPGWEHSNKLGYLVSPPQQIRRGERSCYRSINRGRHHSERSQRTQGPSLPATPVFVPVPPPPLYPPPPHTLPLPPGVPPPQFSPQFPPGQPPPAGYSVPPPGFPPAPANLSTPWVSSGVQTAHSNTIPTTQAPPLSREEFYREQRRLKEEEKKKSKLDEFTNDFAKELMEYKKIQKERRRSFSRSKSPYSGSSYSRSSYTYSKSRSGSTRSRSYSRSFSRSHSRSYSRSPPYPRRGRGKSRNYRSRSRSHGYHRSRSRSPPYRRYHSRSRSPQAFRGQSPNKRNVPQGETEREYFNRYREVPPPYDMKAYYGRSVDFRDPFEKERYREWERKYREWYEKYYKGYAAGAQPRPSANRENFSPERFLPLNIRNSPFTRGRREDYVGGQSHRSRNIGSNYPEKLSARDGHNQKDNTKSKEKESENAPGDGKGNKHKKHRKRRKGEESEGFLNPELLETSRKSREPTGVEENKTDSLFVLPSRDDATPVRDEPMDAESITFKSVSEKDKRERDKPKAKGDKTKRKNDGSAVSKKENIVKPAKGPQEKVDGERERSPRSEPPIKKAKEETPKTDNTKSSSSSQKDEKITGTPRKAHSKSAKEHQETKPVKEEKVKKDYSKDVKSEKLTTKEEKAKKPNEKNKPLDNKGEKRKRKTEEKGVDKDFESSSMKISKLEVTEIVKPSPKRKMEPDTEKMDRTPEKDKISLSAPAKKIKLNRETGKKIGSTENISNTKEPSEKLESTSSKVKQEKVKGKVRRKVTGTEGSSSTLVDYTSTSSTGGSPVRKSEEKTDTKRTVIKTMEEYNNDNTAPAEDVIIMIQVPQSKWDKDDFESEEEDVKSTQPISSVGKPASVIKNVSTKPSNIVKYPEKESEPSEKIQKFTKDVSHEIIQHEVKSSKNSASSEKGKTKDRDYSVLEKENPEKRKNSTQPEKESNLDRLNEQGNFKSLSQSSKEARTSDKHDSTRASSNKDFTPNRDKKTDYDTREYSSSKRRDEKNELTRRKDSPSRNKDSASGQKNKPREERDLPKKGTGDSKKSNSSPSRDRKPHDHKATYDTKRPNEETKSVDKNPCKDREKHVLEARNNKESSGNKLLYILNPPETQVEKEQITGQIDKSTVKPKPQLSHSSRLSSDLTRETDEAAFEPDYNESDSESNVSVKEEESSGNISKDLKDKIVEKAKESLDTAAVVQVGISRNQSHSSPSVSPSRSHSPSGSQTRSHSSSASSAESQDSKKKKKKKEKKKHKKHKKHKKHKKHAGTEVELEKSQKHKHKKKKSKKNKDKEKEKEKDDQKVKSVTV
UniProt Q06609, whole entry, looked up: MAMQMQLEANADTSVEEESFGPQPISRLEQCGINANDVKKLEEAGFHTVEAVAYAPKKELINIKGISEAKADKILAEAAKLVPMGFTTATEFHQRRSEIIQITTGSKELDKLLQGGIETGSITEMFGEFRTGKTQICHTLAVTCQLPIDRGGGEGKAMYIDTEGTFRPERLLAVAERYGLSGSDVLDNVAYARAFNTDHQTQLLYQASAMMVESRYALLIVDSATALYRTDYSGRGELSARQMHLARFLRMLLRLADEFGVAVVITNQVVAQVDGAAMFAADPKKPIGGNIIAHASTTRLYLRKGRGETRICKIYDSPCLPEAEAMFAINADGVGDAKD
UniProt Q9H477: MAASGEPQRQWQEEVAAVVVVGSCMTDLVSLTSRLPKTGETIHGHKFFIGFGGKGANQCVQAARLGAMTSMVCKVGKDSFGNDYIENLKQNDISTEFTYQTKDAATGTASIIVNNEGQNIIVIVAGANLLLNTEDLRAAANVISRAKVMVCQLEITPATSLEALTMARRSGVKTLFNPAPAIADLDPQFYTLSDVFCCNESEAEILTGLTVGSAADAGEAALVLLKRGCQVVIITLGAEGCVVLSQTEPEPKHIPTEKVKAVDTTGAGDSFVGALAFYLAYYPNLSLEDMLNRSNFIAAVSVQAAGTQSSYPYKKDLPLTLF
UniProt Q9NS23: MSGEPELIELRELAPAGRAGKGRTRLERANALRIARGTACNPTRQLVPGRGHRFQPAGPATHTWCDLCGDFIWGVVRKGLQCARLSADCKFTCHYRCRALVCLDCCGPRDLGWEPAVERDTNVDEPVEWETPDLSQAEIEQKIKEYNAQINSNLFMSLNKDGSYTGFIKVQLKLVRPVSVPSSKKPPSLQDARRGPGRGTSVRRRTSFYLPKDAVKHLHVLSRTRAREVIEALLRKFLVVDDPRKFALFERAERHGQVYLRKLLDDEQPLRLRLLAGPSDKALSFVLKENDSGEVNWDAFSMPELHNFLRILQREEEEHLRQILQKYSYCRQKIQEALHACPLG
UniProt Q9H5N1: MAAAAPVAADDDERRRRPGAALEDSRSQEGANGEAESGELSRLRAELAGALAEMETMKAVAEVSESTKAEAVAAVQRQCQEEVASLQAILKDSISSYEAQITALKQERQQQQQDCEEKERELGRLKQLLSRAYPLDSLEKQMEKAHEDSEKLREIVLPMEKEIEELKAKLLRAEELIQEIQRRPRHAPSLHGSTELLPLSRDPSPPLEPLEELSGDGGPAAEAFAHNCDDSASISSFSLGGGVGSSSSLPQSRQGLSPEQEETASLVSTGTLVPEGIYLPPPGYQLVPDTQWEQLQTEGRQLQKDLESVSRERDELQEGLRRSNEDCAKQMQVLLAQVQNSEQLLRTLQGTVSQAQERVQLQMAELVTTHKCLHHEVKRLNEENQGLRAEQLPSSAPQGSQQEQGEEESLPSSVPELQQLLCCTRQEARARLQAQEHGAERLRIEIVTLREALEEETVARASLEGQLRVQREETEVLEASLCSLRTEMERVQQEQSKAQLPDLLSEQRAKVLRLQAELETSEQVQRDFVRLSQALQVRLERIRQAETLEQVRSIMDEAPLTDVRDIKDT
UniProt Q13905: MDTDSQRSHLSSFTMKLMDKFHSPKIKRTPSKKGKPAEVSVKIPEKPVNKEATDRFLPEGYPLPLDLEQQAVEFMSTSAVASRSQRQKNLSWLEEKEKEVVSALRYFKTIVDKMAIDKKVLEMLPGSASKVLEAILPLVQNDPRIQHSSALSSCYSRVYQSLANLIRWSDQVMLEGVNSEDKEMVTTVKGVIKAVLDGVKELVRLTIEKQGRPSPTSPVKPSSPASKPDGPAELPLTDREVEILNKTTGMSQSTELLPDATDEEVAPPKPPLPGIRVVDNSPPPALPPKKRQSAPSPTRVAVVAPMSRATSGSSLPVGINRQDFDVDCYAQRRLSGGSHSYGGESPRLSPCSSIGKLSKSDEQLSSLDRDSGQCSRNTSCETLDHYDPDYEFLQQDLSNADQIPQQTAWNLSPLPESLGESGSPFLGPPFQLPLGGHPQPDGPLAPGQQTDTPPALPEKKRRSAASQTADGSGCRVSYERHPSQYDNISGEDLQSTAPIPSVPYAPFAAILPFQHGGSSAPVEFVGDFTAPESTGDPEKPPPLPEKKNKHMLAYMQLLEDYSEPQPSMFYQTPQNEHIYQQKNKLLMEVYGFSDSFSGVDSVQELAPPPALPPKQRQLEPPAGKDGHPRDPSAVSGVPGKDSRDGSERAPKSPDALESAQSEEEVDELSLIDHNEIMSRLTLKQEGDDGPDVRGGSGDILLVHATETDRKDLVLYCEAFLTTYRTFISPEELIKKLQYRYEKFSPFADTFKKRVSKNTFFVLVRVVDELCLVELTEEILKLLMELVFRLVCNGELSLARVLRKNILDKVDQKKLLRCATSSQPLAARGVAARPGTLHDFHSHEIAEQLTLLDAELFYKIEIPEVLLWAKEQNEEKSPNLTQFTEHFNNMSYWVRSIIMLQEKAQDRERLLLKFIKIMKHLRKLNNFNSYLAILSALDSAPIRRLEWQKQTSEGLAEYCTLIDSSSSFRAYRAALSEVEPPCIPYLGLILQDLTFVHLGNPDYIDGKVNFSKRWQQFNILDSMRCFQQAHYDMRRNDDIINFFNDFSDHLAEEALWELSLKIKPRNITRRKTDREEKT
UniProt Q9P0K7: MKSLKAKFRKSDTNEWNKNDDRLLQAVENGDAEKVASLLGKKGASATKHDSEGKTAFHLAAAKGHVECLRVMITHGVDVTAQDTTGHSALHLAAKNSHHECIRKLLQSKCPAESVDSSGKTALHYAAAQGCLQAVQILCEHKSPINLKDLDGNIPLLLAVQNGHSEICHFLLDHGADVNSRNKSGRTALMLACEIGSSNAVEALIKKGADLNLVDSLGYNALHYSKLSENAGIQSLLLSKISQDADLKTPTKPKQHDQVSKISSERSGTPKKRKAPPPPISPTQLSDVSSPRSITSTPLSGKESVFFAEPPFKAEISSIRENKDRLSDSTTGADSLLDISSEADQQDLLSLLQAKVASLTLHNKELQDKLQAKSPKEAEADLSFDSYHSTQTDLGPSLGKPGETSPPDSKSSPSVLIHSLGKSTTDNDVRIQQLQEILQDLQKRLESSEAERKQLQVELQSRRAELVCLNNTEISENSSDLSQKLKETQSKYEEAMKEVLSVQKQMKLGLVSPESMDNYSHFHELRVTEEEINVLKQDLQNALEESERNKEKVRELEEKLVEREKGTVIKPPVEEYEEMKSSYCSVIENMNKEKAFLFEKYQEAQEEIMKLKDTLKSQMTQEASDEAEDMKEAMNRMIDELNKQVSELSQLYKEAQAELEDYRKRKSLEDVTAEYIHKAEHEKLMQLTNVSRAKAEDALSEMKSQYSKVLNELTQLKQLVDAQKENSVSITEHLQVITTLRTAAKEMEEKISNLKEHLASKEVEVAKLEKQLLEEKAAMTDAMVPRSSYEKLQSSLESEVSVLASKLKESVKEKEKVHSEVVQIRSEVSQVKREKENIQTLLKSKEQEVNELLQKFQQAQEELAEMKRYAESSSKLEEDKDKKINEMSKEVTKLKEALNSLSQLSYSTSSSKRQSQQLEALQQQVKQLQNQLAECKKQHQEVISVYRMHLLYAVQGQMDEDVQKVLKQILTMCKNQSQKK
UniProt Q15311: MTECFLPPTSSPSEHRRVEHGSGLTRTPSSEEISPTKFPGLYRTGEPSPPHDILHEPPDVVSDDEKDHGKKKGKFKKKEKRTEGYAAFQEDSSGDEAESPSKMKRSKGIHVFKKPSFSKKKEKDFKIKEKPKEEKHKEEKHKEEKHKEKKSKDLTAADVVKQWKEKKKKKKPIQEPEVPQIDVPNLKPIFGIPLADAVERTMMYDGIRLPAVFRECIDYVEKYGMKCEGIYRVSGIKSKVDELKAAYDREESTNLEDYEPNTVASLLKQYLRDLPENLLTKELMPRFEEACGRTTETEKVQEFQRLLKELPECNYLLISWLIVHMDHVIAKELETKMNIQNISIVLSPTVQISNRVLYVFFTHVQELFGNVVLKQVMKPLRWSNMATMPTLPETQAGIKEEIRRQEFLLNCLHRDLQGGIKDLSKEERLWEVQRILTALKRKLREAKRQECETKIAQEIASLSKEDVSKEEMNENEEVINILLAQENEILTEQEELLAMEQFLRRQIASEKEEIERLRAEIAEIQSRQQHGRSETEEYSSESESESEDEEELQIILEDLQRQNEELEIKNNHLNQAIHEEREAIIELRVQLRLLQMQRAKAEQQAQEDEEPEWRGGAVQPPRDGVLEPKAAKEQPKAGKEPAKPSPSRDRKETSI
UniProt Q9BYM8: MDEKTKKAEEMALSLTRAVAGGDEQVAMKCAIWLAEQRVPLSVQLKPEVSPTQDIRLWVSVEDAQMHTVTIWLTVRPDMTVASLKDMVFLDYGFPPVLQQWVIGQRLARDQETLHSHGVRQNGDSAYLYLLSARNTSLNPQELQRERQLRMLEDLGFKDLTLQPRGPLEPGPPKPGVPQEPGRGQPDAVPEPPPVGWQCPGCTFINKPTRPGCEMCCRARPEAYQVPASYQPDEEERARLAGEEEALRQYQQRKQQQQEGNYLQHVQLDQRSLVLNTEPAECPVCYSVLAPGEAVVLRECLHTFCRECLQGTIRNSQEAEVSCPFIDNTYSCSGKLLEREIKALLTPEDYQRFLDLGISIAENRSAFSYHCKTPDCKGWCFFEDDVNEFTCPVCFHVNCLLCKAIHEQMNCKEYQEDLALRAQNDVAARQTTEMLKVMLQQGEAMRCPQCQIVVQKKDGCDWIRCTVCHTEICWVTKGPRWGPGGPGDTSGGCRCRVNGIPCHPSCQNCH

What was measured:
Assay in all cases: log2 fold change, soluble protein after heating vs DMSO (PISA); higher = thermal stabilisation; K562 cells, 10 uM, 30 min; active = over 0.2 and 3.5 SD of the protein, either way, in both replicates (recomputed)
[1] = compound: CC[C@@H]1C(=O)N(C)c2cnc(Nc3ccc(C(=O)NC4CCN(C)CC4)cc3OC)nc2N1C1CCCC1
How it was run: (§1)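 Soluble protein was quantified by TMTpro 16plex LC-MS/MS after channel sums were equalised. It was obtained as the supernatant after 21,000xg for 90 min from pooled aliquots of K562 cells (2×10^6 cells/mL, 10 μM compound, 30 min) heated for 3 min across 48°C-58°C and extracted in PBS with 0.5% NP-40 at 4°C. Thermal stability values are relative to control samples and come from duplicates. They are given as log2 fold changes.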

[2] = compound: CC[C@@H]1C(=O)N(C)c2cnc(Nc3ccc(C(=O)N[C@H]4CC[C@H](N5CCN(CC6CC6)CC5)CC4)cc3OC)nc2N1C(C)C [volasertib]
How it was run: as §1

[3] = compound: CC[C@H](C)N1C=C(C2=C(C=C(C=C21)C3=CN=C(C=C3)N4CCNCC4)C(=O)NCC5=C(C=C(NC5=O)C)C)C
How it was run: as §1

[4] = compound: CC[C@H](C)[C@@H](C(=O)N[C@@H]([C@@H](C)O)C(=O)N[C@@H](CC(C)C)C(=O)[C@]1(CO1)C)NC(=O)[C@H]([C@@H](C)CC)N(C)C(=O)C [epoxomicin]
How it was run: as §1

[5] = compound: CCn1cc(-c2ccnc3[nH]c(-c4cccc(CN(C)C)c4)cc23)c(-c2ccc(NC(=O)N(C)C)cc2)n1
How it was run: as §1

[6] = compound: CN(C)CC(=O)Nc1ccc2[nH]c(=O)c3ccccc3c2c1
How it was run: as §1

[7] = compound: CN1C2=C(C3=C1C(=O)N(N=C3)CC4=CC(=CC=C4)N)SC(=C2)S(=O)C
How it was run: as §1

[8] = compound: CN1CCC(CNc2ccc3ncc(-c4cccc(OC(F)(F)F)c4)n3n2)CC1
How it was run: as §1

[9] = compound: CCn1c(C(=O)N(C2CC2)C2CC2)cc2c3c(ncn3C)c(Nc3cc(C)n(C)n3)nc21
How it was run: as §1

[10] = compound: CN(CCOC1=CC=C(C=C1)C[C@H]2C(=O)NC(=O)S2)C3=CC=CC=N3 (racemic) [rosiglitazone]
How it was run: as §1

| Target | log2 fold change [1] | log2 fold change [2] | log2 fold change [3] | log2 fold change [4] | log2 fold change [5] | log2 fold change [6] | log2 fold change [7] | log2 fold change [8] | log2 fold change [9] | log2 fold change [10] |
| --- | --- | --- | --- | --- | --- | --- | --- | --- | --- | --- |
| RAB5IF isoform 5 (UniProt Q9BUV8) | inactive: -0.025 | inactive: 0.036 | inactive: -0.129 | inactive: 0.017 | inactive: -0.056 | inactive: -0.031 | inactive: 0.003 | inactive: 0.092 |  |  |
| RAD50 isoform 2 (UniProt Q92878) | inactive: -0.069 | active: -0.228 | inactive: 0.041 | inactive: 0.041 | inactive: -0.001 | inactive: 0.025 | inactive: -0.03 | inactive: -0.074 |  |  |
| RARS (UniProt P54136) | inactive: 0.059 | inactive: -0.172 | inactive: 0.072 | inactive: -0.085 | inactive: 0.107 | inactive: 0.013 | inactive: 0.26 | inactive: -0.111 |  |  |
| RAB3IL1 (UniProt Q8TBN0) | inactive: -0.018 | inactive: -0.136 | inactive: -0.001 | inactive: -0.001 | inactive: -0.15 | inactive: 0.009 | inactive: -0.035 | inactive: 0.013 |  |  |
| RBM28 (UniProt Q9NW13) | inactive: 0.059 | inactive: -0.06 |  | inactive: -0.096 |  |  |  |  | inactive: 0.117 | inactive: -0.271 |
| RAB9A (UniProt P51151) | inactive: -0.061 | inactive: -0.024 | inactive: -0.001 | inactive: 0.064 | inactive: 0.004 | inactive: 0.034 | inactive: -0.034 | active: -0.252 |  |  |
| RAB11FIP1 (UniProt Q6WKZ4) | inactive: -0.07 | inactive: -0.105 | inactive: 0.023 | inactive: 0.122 | inactive: -0.063 | inactive: 0.021 | inactive: -0.017 | active: -0.373 |  |  |
| RAB3IL1 (UniProt E9PK89) | inactive: -0.012 | inactive: -0.137 | inactive: 0.25 | inactive: 0.109 | active: -0.555 | inactive: 0.035 |  | inactive: -0.342 |  |  |
| RACK1 (UniProt D6RF23) | inactive: 0.282 | inactive: 0.184 |  | inactive: -0.083 | inactive: 0.069 | inactive: -0.03 | inactive: 0.035 | inactive: -0.113 | inactive: 0.02 | inactive: 0.116 |
| RBBP6 (UniProt Q7Z6E9) | inactive: -0.061 | inactive: -0.068 | inactive: 0.013 | inactive: -0.001 | inactive: -0.003 | inactive: 0.024 |  | inactive: -0.014 |  |  |
| RAD51 (UniProt Q06609) | inactive: 0.013 | inactive: 0.113 | inactive: 0.026 | inactive: 0.157 | inactive: -0.011 | inactive: -0.024 | inactive: -0.075 | inactive: 0.051 |  |  |
| RARS2 (UniProt Q5T160) | inactive: -0.121 | active: -0.238 | inactive: -0.003 | inactive: 0.04 | inactive: -0.046 | inactive: 0.026 | inactive: -0.065 | inactive: -0.143 |  |  |
| RABGAP1L isoform 5 (UniProt Q5R372) |  | inactive: 0.01 | inactive: 0.074 | inactive: -0.085 |  |  | inactive: 0.059 |  |  |  |
| RAP1B (UniProt F5GWU8) |  | inactive: -0.138 |  |  |  | inactive: -0.271 | inactive: -0.005 |  |  |  |
| RAD18 (UniProt Q9NS91) |  | inactive: -0.31 | inactive: 0.038 | inactive: -0.031 | inactive: -0.004 | inactive: 0.038 | inactive: 0.021 | inactive: -0.184 | inactive: -0.021 | inactive: -0.037 |
| RBM23 (UniProt Q86U06) |  | inactive: -0.379 |  | inactive: 0.046 |  | inactive: 0.22 | inactive: -0.292 |  | inactive: 0.117 | inactive: 0.185 |
| RAB18 (UniProt H0Y6T8) | inactive: 0.339 |  | inactive: -0.227 |  |  | inactive: 0.086 |  |  |  | inactive: 0.192 |
| RBKS (UniProt Q9H477) | inactive: -0.101 | inactive: -0.178 |  |  |  | inactive: 0.12 |  |  |  |  |
| RAB3B (UniProt P20337) |  | inactive: -0.065 |  |  | inactive: 0.592 |  |  | inactive: -0.124 | inactive: 0.035 |  |
| RAI1 (UniProt Q7Z5J4) |  |  | inactive: -0.001 | inactive: 0.025 |  |  |  |  | inactive: -0.053 | inactive: -0.03 |
| RASSF1 (UniProt Q9NS23) |  |  |  |  |  | inactive: 0.025 |  |  |  |  |
| RABEP2 (UniProt Q9H5N1) |  |  |  |  |  |  |  |  | inactive: -0.088 |  |
| RAP1GAP isoform 4 (UniProt P47736) |  | inactive: -0.321 | inactive: 0.109 | inactive: -0.039 | inactive: 0.101 | inactive: 0.014 | inactive: 0.037 | inactive: -0.487 | inactive: -0.126 | inactive: 0.129 |

| Target | log2 fold change [1] | log2 fold change [2] | log2 fold change [3] | log2 fold change [4] | log2 fold change [5] | log2 fold change [6] | log2 fold change [7] | log2 fold change [8] | log2 fold change [9] | log2 fold change [10] |
| --- | --- | --- | --- | --- | --- | --- | --- | --- | --- | --- |
| RBBP4 isoform 2 (UniProt Q09028) | inactive: 0.035 |  |  |  | inactive: 0.096 |  | inactive: 0.028 | inactive: -0.002 | inactive: -0.028 | inactive: 0.074 |
| RAD50, A0A494C0Y7 | inactive: 0.077 | inactive: -0.109 |  |  | inactive: 0.033 | inactive: 0.055 | inactive: 0.097 | inactive: 0.04 |  |  |
| RAD23A isoform 3 (UniProt P54725) |  |  | inactive: 0.131 |  | inactive: 0.152 |  |  | inactive: -0.086 |  |  |
| RALGPS2 (UniProt Q86X27) | inactive: 0.139 |  |  | inactive: -0.247 | inactive: -0.203 | inactive: -0.059 | inactive: 0.137 | inactive: 0.082 |  |  |
| RBBP9 (UniProt O75884) |  |  |  | inactive: -0.017 |  | inactive: -0.197 |  |  |  |  |
| RAPGEF4 (UniProt Q8WZA2) | inactive: -0.13 |  |  | inactive: -0.038 |  | inactive: -0.011 | inactive: -0.036 |  |  |  |
| RAPGEF1 isoform 3 (UniProt Q13905) |  |  |  |  |  |  |  |  |  | inactive: 0.114 |
| RBL1 (UniProt P28749) | inactive: -0.037 |  | inactive: -0.079 |  | inactive: -0.003 |  |  | inactive: -0.19 | inactive: -0.115 | inactive: 0.06 |
| RBM14 (UniProt Q96PK6) | inactive: 0.054 | inactive: -0.128 |  |  | inactive: 0.043 | inactive: -0.099 | inactive: 0.1 | inactive: 0.108 | inactive: -0.178 | inactive: -0.057 |
| RAB28 (UniProt P51157) |  |  |  |  | inactive: 0.006 | inactive: -0.027 | inactive: -0.029 | inactive: -0.16 | inactive: -0.086 |  |
| RBBP8 isoform 2 (UniProt Q99708) |  | inactive: -0.22 |  |  |  |  |  |  | inactive: 0.041 |  |
| RAI14 isoform 2 (UniProt Q9P0K7) |  | inactive: -0.273 | inactive: 0.361 | inactive: 0.045 | inactive: 0.045 | inactive: 0.106 | inactive: 0.145 | inactive: -0.087 | inactive: -0.02 | inactive: 0.224 |
| RALBP1 (UniProt Q15311) |  | inactive: -0.02 |  | inactive: -0.184 | inactive: 0.149 | inactive: 0.197 |  | inactive: -0.114 |  |  |
| RBCK1 (UniProt Q9BYM8) |  | inactive: -0.099 |  | inactive: -0.033 |  | inactive: 0.028 | inactive: -0.002 |  | inactive: 0.032 |  |
| RANBP3 isoform 2 (UniProt Q9H6Z4) | inactive: -0.012 |  | inactive: -0.069 |  | inactive: 0.036 |  |  | inactive: -0.014 | inactive: 0 | inactive: 0.044 |
| RAPGEF6 isoform 4 (UniProt Q8TEU7) | inactive: 0.018 |  | inactive: 0.063 | inactive: 0.055 | inactive: -0.034 | inactive: -0.089 |  | inactive: -0.202 | inactive: -0.061 | inactive: 0.081 |
| RANBP6 (UniProt O60518) | inactive: -0.093 | inactive: -0.194 |  |  |  |  | inactive: -0.271 |  |  |  |
| RAB19 isoform 2 (UniProt A4D1S5) |  |  |  | inactive: 0 |  |  |  |  |  | inactive: -0.118 |
| RAB11FIP5 (UniProt Q9BXF6) |  | inactive: -0.167 |  |  |  |  |  |  |  |  |
| RASA3 (UniProt Q14644) |  |  |  |  | inactive: 0.264 |  | inactive: -0.172 | inactive: 0.05 |  |  |
| RAPGEF2, A0A2R8YGD3 |  | inactive: -0.041 |  | inactive: 0.058 | inactive: 0.031 | inactive: -0.105 | inactive: 0.012 | inactive: -0.114 | inactive: -0.028 | inactive: 0.028 |
| RAD17 (UniProt O75943) |  |  |  |  |  |  | inactive: 0.196 |  |  |  |

Reprinted at random: 2 entries already listed, in no set order.

| Target | log2 fold change [1] | log2 fold change [2] | log2 fold change [3] | log2 fold change [4] | log2 fold change [5] | log2 fold change [6] | log2 fold change [7] | log2 fold change [8] | log2 fold change [9] | log2 fold change [10] |
| --- | --- | --- | --- | --- | --- | --- | --- | --- | --- | --- |
| RAD50, A0A494C0Y7 | inactive: 0.077 | inactive: -0.109 |  |  | inactive: 0.033 | inactive: 0.055 | inactive: 0.097 | inactive: 0.04 |  |  |
| RAPGEF1 isoform 3 (UniProt Q13905) |  |  |  |  |  |  |  |  |  | inactive: 0.114 |
